Results as given in PubChem BioAssay AID1508600 (Functional Genomics Laboratory (NCATS/FGL), 2020).
The campaign covered roughly 53,000 sequences. About 3,700 (7%) were called active.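 How the source made its calls: active means gene knockdowns whose robust z-score for IL-1 alpha signal is at least 2 or at most -2, so actives lie on both sides; inactive means the rest.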 The list shows a part of the results.

Assay: Components of the Cytosolic LPS Sensing Pathway: Gene Identification via Genome-wide siRNA Screen;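 further: robust z of the log signal after scaling to non-targeting control siRNA wells of the plate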
Settings: RAW264.7 macrophages, IL-1a HTRF, actives lie on both sides, screened at 100 nM (by protocol), cells primed 5 h with Pam3CSK4 first
How it was run: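 Cells (RAW264.7, 1×10^4 per well) were transfected with siRNA at 100 nM and cultured 48h at 37 degrees C. Pam3CSK4 was added for 5 hours; LipidA transfection followed for 24 hour. IL-1a was then measured by HTRF.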

z-score, active:
GCUCACACUCUUCAUUAUCTT against Olfr1408 -2.91
CCACUACAAUGUAGCGACGTT against C1qtnf9 -2.24
GGACAUUUCUAUGUCUUUGTT against Cpt2 3.35
GGAUGAGGUGAUUAAAGAATT against Cd9 2.38
GGCUGUGGAAGUGCAGAACTT against Dnmt3a -2.53

z-score, inactive:
GGGAAGCAAUAAGUCGCCUTT against Shc4 0.394
GCUACUUCAGUCAAGAACATT against Ints3 -0.11
GGAAUUCAGAGACAGACUATT against Fpr-rs4 -1.06
GGCAAGAAUUCGUUCAUGUTT against Adap1 0.337
GCUAGACCUCACUGUUUUUTT against Sprr2i 1.03
GGACUAUGCCGAUAAUAUCTT against Rab24 0.209
GGAGACUACCAGGACAAUATT against Tmem223 0.00381
GGCCUGACGCAUUAGCAUUTT against Ccdc103 0.232
GGUUCUUCCCACAGAAGACTT against Pggt1b 0.176
GGUCCCUCUAGCUACAAAUTT against Efcab8 -0.163
GGCUUUCAGGAUAUCAUUUTT against H3c7 0.84
GUGUUCACCUGACUUUCCCTT against Nlrp4g -1.55
GCCCAAGUGUACUACCGUGTT against Ece1 1.4
GCUCCUAUUACCAAAUUAATT against Olfr747 -0.587
GGAGAGAAAAUCUUCCAUUTT against Pramel6 0.429
CGUCGGUUUCUCCCUGAAATT against Tdpoz5 -0.376
GGCAGAAACCCUUCUAUGUTT against Bmp8a -1.55
GGGCAUUUCAUAAGCUACATT against 4932435O22Rik -0.116
GAAAUAUUACAGCGACUGUTT against Pantr1 0.369
GGCCUUUGAGGUCUACAUATT against Icam2 0.323
GGGAAGAAAAUAUGGAAAATT against Irf9 -0.415
ACAUUUAUCACGACCCUUCTT against Olfr777 1.3
GGAUGUGGAAGAAUUUCUGTT against Mrpl49 0.289
GGAAGUGAUCCGAAAAUCATT against Mbd2 1.36
GGAAACCAGAACAUCACUUTT against Olfr829 -1.02
GGAUCAUCUAUACAGCACATT against Tgfb1i1 -1.85
GCCUCUUCAUGUCAGUCCCTT against Capn12 1.92
GGUCAGAAAAACAACCACGTT against Phxr5 -1.59
GGCUGAAUUUUGUGACUAUTT against Il18r1 -1.86
GGAACACCAACCAGAAUAATT against Serpina3n -0.994
GCCAACUCAGUUUUGAAUGTT against Lyrm1 0.831
GGAAACCACUUGAUCAGCATT against Ube4a -1.48
GGACAUCCUCAAGCUUCAUTT against Cib2 -1.71
GGCUUCAGCAGAAAACUUCTT against Ola1 0.529
GGAGGAGCUCCUAAAGUGUTT against Bcat1 -1.03
GGGUUGUGCCUCACAGAUUTT against Olfr976 0.684
GGACCAAGCAAGAAGGUGGTT against Tatdn2 -0.619
CCCUGAAAAUUAUCGAGCGTT against Galnt18 -0.493
GCUAAUGCUAGGUGUGAAATT against Caskin2 -0.219
GCCUAACAUUAACAUGUAATT against Srrm4 -0.714
GGGUGCAGUGGAGUCUAUUTT against Smc1a -1.31
GGAUCAAAACUUAAAUGGUTT against Lancl1 -0.0547
GGAAGACGUAAUAAAGUUATT against Iqcc -0.785
GGUCAGAAGAAAAGACAAATT against Gpatch4 0.5
GCUGCUAAAGAGCAUUUUGTT against Fkbp11 0.131
GGCUUCUUGAGGAGAAAGATT against Trak1 -0.0918
CGCAUCUCUAUCCACACUUTT against Dnal1 0.63
GGCCAAGAGCAACUCACUGTT against BC048671 0.202
CCUAAUUGUCCUUCACAUGTT against Pfkfb2 1.4
GCAGUUGCGUUCUAUUGAATT against Ccdc86 0.179
GACUUCUCUAGUCUGCCGGTT against Ankrd33b 1.91
GCGAUUUCACACCAUCACATT against Rab10 -1.03
GCAAUUCAUCAGGAGCAGGTT against Rab8b 1.78
GGAUGAACAACUCUAGGCCTT against Mafk -0.736
GGAAUACAUCGAAAUCAACTT against Gstt4 -1.23
GGAUUAUCAGAAGUGUGUCTT against Mrps35 -0.117
GCUACUUCAGCUAUUGAGGTT against Cd200r1 -0.105
GGCAUGGGAAUUAUUCCAATT against Kif5b 0.89
GGUCAUGAUCAAGACACAUTT against Tmem63c 0.371
CCAUAGGAACUUCUACUCCTT against Mical2 -1.58
CGAGGCUAUUGACUUCAUATT against Dusp1 0.107
GAUCUCUGAAUUACGGAGUTT against Krtap13 0.796
GGAACAGCAGCUUCCCUAATT against 4930555G01Rik -0.0144

As a short view, part of the list above:
z-score, inactive:
GGUUCUUCCCACAGAAGACTT against Pggt1b 0.176
GGUCCCUCUAGCUACAAAUTT against Efcab8 -0.163
GGCUUUCAGGAUAUCAUUUTT against H3c7 0.84
GUGUUCACCUGACUUUCCCTT against Nlrp4g -1.55
GCCCAAGUGUACUACCGUGTT against Ece1 1.4
GCUCCUAUUACCAAAUUAATT against Olfr747 -0.587
GGAGAGAAAAUCUUCCAUUTT against Pramel6 0.429
CGUCGGUUUCUCCCUGAAATT against Tdpoz5 -0.376
GGCAGAAACCCUUCUAUGUTT against Bmp8a -1.55
GGGCAUUUCAUAAGCUACATT against 4932435O22Rik -0.116
GAAAUAUUACAGCGACUGUTT against Pantr1 0.369
GGCCUUUGAGGUCUACAUATT against Icam2 0.323
GGGAAGAAAAUAUGGAAAATT against Irf9 -0.415
ACAUUUAUCACGACCCUUCTT against Olfr777 1.3
GGAUGUGGAAGAAUUUCUGTT against Mrpl49 0.289
GGAAGUGAUCCGAAAAUCATT against Mbd2 1.36
GGAAACCAGAACAUCACUUTT against Olfr829 -1.02
GGAUCAUCUAUACAGCACATT against Tgfb1i1 -1.85
GCCUCUUCAUGUCAGUCCCTT against Capn12 1.92
GGUCAGAAAAACAACCACGTT against Phxr5 -1.59
GGCUGAAUUUUGUGACUAUTT against Il18r1 -1.86
